# Laboratory results: ChEMBL document CHEMBL4513134, “CO-ADD screening of University of Queensland (Australia) compounds” (2021)
# The list shows a part of the results. Entries with a potency or affinity are not part of this list.
# Tested on: Acinetobacter baumannii
# Settings: Concentration 32 ug.mL-1; ASSAY_TEST Inhibition of Bacterial Growth; detection method Absorption (OD600); MEDIA CAMHB; plate type 384well; NBS; CORNING #3640; time 18 hr
row,SMILES,Inhibition [%]
1,CN(C)C(=O)c1ncc([N+](=O)[O-])n1C,7.61
2,Cc1ccc(CCNC(=O)c2ncc([N+](=O)[O-])n2C)cc1,8.37
3,Cn1c([N+](=O)[O-])cnc1C(=O)NC1CC1,4.49
4,CC(NC(=O)c1ncc([N+](=O)[O-])n1C)c1ccc(F)cc1 (stereo not given),2.85
5,Cn1c([N+](=O)[O-])cnc1C(=O)NCc1ccccn1.O=C(O)C(F)(F)F,2.43
6,Cn1c([N+](=O)[O-])cnc1C(=O)NCc1ccc(F)cc1,8.21
7,Cn1c([N+](=O)[O-])cnc1C(=O)NCc1cccc(OC(F)(F)F)c1,2.6
8,Cn1c([N+](=O)[O-])cnc1C(=O)N1CCOCC1,3.87
9,Cn1c([N+](=O)[O-])cnc1C(=O)NCc1ccc(OC(F)(F)F)cc1,-2.47
10,Cn1c([N+](=O)[O-])cnc1C(=O)N1CCCC1,3.46

# Arranged by molar mass (rising): three of the compounds above
row,SMILES,Inhibition [%]
6,Cn1c([N+](=O)[O-])cnc1C(=O)NCc1ccc(F)cc1,8.21
4,CC(NC(=O)c1ncc([N+](=O)[O-])n1C)c1ccc(F)cc1 (stereo not given),2.85
9,Cn1c([N+](=O)[O-])cnc1C(=O)NCc1ccc(OC(F)(F)F)cc1,-2.47
